PubChem BioAssay AID1159579 | Peter MacCallum Cancer Centre – 2015
Screen: 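Follow-up screen seeking modulators of motility in lymphatic endothelial cells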 (follow-up of hits). Cells: human dermal lymphatic endothelial cells. Reagents: single siRNA against human genes, 25 nM. Measured: 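High content images of wound closure area and cell nuclei counts, each the average of two wells, expressed against mock transfection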. Direction: migration relative to mock: higher = more migration into the scratch; mean nuclei count: higher = more cells remaining. Rule for the call: 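Called active when the migration ratio is 0.6 or lower (impaired) or 1.3 or higher (accelerated), but inactive whenever the mean nuclei count falls under 3300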. Calls: active = migration changed (impaired or accelerated); inactive = no migration change, or too few cells.
In all, the deposit lists about 2,000 reagents; shown is a random part of them. In the full data, 549 (27%) are marked active. 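Some migration ratios are negative; siRNAs with too few cells are inactive whatever their migration ratio.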 Unmarked entries are inactive. Reagents against one gene are numbered here. Reagent sequences are not shown. Not stated in the record: the time to read-out.

GDF3 (GeneID 9573) #1 showed migration relative to mock 0.84; migration and cell number class no change in migration or cell number; mean nuclei count 5684. With knock-down of GDF3 (GeneID 9573) #2 the results were migration relative to mock 0.45 (active); migration and cell number class migration reduced; mean nuclei count 6088. GDF3 (GeneID 9573) #3 scored migration relative to mock 0.12 (active); migration and cell number class migration reduced; mean nuclei count 4494. Against GDF3 (GeneID 9573) #4, the values are migration relative to mock -0.5 (active); migration and cell number class migration reduced; mean nuclei count 5164. With knock-down of NFATC4 (GeneID 4776) #1, the record shows migration relative to mock 0.6 (active); migration and cell number class migration reduced; mean nuclei count 5845. Silencing of NFATC4 (GeneID 4776) #2 came out at: migration relative to mock 0.21 (active); migration and cell number class migration reduced; mean nuclei count 4950.

NFATC4 (GeneID 4776) #3 gave migration relative to mock 0.49 (active); migration and cell number class migration reduced; mean nuclei count 5456. After knock-down of NFATC4 (GeneID 4776) #4, the record shows migration relative to mock 0.94; migration and cell number class no change in migration or cell number; mean nuclei count 6246.

Records listed above with an active call:
GDF3 (GeneID 9573) #2 → migration relative to mock: 0.45 (active); migration and cell number class: migration reduced; mean nuclei count: 6088
GDF3 (GeneID 9573) #3 → migration relative to mock: 0.12 (active); migration and cell number class: migration reduced; mean nuclei count: 4494
GDF3 (GeneID 9573) #4 → migration relative to mock: -0.5 (active); migration and cell number class: migration reduced; mean nuclei count: 5164
NFATC4 (GeneID 4776) #1 → migration relative to mock: 0.6 (active); migration and cell number class: migration reduced; mean nuclei count: 5845
NFATC4 (GeneID 4776) #2 → migration relative to mock: 0.21 (active); migration and cell number class: migration reduced; mean nuclei count: 4950
NFATC4 (GeneID 4776) #3 → migration relative to mock: 0.49 (active); migration and cell number class: migration reduced; mean nuclei count: 5456

More results follow:
TUBB2A (GeneID 7280) #1 showed migration relative to mock -0.42 (active); migration and cell number class migration reduced; mean nuclei count 5518. With knock-down of TUBB2A (GeneID 7280) #2, the screen gave migration relative to mock 0.88; migration and cell number class no change in migration or cell number; mean nuclei count 6947. Depletion of TUBB2A (GeneID 7280) #3 resulted in: migration relative to mock 0.62; migration and cell number class no change in migration or cell number; mean nuclei count 6351. TUBB2A (GeneID 7280) #4 gave migration relative to mock 0.77; migration and cell number class no change in migration or cell number; mean nuclei count 6380. Against TTLL12 (GeneID 23170) #1 the deposit lists migration relative to mock 0.7; migration and cell number class no change in migration or cell number; mean nuclei count 6364. TTLL12 (GeneID 23170) #2 scored migration relative to mock 0.76; migration and cell number class no change in migration or cell number; mean nuclei count 5136.

For TTLL12 (GeneID 23170) #3, the entry reads migration relative to mock 0.7; migration and cell number class no change in migration or cell number; mean nuclei count 5606. Against TTLL12 (GeneID 23170) #4, the entry reads migration relative to mock 0.48 (active); migration and cell number class migration reduced; mean nuclei count 3338. GBA1 (GeneID 2629) #1 scored migration relative to mock 0.84; migration and cell number class no change in migration or cell number; mean nuclei count 5086. With knock-down of GBA1 (GeneID 2629) #2, the record shows migration relative to mock 0.13 (active); migration and cell number class migration reduced; mean nuclei count 5480. For GBA1 (GeneID 2629) #3, the values are migration relative to mock 0.46 (active); migration and cell number class migration reduced; mean nuclei count 5470. With knock-down of GBA1 (GeneID 2629) #4, the record shows migration relative to mock 0.82; migration and cell number class no change in migration or cell number; mean nuclei count 7292.

For INTS1 (GeneID 26173) #1, the values are migration relative to mock 0.75; migration and cell number class no change in migration or cell number; mean nuclei count 5458. Against INTS1 (GeneID 26173) #2 the deposit lists migration relative to mock 0.88; migration and cell number class no change in migration or cell number; mean nuclei count 6168. INTS1 (GeneID 26173) #3 showed migration relative to mock 1.02; migration and cell number class no change in migration or cell number; mean nuclei count 5228. INTS1 (GeneID 26173) #4 scored migration relative to mock 0.93; migration and cell number class no change in migration or cell number; mean nuclei count 4454.
